The values below come from paper PMC10897178, “FANCJ DNA helicase is recruited to the replisome by AND-1 to ensure genome stability” (EMBO Reports, 2024).

These are yes or no findings as the source states them, for the method shown. Tags and fused reporters may be left off the sequences shown.

The assay concerns the target T1, Flag-tagged DDX11 (human) (UniProt Q96FC9).
T1 sequence: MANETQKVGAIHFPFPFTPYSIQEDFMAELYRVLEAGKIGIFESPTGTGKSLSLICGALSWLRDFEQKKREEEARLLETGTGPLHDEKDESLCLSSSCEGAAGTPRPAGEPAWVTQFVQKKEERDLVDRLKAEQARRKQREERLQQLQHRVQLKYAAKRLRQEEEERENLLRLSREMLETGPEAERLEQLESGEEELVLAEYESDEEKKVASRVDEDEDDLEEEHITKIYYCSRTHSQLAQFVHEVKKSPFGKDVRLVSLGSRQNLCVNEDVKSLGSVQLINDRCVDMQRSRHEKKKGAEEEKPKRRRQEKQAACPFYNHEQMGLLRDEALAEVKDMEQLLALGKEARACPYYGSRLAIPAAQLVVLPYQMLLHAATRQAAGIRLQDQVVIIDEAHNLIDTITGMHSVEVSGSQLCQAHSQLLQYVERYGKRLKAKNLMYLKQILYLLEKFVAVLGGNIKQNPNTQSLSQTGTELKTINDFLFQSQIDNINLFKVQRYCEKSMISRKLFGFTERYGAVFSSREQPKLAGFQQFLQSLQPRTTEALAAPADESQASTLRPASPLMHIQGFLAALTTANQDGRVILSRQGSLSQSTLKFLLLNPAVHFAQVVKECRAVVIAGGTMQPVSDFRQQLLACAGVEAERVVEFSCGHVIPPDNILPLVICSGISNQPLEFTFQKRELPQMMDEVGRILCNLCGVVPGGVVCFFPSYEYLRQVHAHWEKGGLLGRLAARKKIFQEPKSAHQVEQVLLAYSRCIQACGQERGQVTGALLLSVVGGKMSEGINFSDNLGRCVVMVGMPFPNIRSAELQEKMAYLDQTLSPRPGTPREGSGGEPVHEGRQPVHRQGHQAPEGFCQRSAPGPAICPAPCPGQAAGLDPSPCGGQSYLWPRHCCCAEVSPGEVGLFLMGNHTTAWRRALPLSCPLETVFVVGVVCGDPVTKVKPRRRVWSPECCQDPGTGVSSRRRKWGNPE
The experiment in a line: pull-down; Flag-tagged protein (2 µg) on anti-Flag M2 agarose beads, purified AND-1 SepB (4 µg) added; 20 mM HEPES-NaOH pH 7.2, 150 mM NaCl, 0.1% Igepal, 1% BSA, 4 °C; Western blot; both purified.

B1: 6xHis-tagged AND-1 SepB (domain or fragment, human, UniProt O75717 336-826, looked up)
chain: GDFLNDNAVEIPSFSKGIINDDEDDEDLMMASGRPRQRSHILEDDENSVDISMLKTGSSLLKEEEEDGQEGSIHNLPLVTSQRPFYDGPMPTPRQKPFQSGSTPLHLTHRFMVWNSIGIIRCYNDEQDNAIDVEFHDTSIHHATHLSNTLNYTIADLSHEAILLACESTDELASKLHCLHFSSWDSSKEWIIDLPQNEDIEAICLGQGWAAAATSALLLRLFTIGGVQKEVFSLAGPVVSMAGHGEQLFIVYHRGTGFDGDQCLGVQLLELGKKKKQILHGDPLPLTRKSYLAWIGFSAEGTPCYVDSEGIVRMLNRGLGNTWTPICNTREHCKGKSDHYWVVGIHENPQQLRCIPCKGSRFPPTLPRPAVAILSFKLPYCQIATEKGQMEEQFWRSVIFHNHLDYLAKNGYEYEESTKNQATKEQQELLMKMLALSCKLEREFRCVELADLMTQNAVNLAIKYASRSRKLILAQKLSELAVEKAAELTAT
notes: AND-1 (WDHD1), human, SepB domain, amino-acid residues 336-826; pRSF-Duet-1 construct from Luca Pellegrini; purification as in Kilkenny et al, 2017; also called 6xHis-SepB; AND-1 SepB domain; source: E. coli BL21 (DE3), purified
On to B1, for which the binding result is given as “no binding (tested: 4 µg SepB)”.
